According to patent US20260109761A1:
No constants are given. Whether binding was seen depends on the method and setting. Some entries that bind do so weakly or less than the wild type. Blank lines part the entries; values can stand above or below the binder they belong to.

Chains of the proteins cited; added tags and fusions are not shown.
UniProt Q95KA5: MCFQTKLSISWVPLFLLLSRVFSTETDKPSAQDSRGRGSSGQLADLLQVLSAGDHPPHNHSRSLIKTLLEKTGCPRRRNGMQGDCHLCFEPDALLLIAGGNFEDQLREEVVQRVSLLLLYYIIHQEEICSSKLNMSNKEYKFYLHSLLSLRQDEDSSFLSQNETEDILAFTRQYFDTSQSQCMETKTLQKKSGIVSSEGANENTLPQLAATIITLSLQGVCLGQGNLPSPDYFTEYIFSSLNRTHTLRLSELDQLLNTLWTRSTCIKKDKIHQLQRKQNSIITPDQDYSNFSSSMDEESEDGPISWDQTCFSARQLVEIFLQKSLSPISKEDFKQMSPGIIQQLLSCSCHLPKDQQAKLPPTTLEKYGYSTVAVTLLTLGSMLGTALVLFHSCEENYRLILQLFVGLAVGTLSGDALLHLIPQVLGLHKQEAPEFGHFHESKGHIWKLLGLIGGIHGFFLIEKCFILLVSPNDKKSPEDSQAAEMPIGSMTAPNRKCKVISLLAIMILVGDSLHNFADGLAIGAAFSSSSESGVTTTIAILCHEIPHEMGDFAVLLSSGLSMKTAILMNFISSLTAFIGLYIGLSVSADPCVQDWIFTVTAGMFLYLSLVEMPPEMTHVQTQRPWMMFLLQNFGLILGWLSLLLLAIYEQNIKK

Tests used:
huZIP12-ECD-GST (human) [1] = biological target: huZIP12-ECD-GST (human) (UniProt Q504Y0); experiment: HTRF competition: unlabelled antibody against Tb-labelled 51B12-parent on hZIP12-ECD-GST, detected with anti-GST-XL665
[2] = biological target: ZIP12 full length protein over-expressed on CHO-Ki cells (Homo sapiens (Human)) (UniProt Q504Y0); experiment: flow cytometry on CHO-Ki cells over-expressing ZIP12
[3] = biological target: ZIP12 full length protein over-expressed on CHO-Ki cells (Homo sapiens (Human)) (UniProt Q504Y0); experiment: flow cytometry, Alexa Fluor 647: CHO cells over-expressing human ZIP12 (CHO-hZip12) against CHO parent cells
huZIP12-ECD-GST (human) [4] = biological target: huZIP12-ECD-GST (human) (UniProt Q504Y0); experiment: SPR single cycle kinetics, mAb captured on protein A, 3.12-800 nM huZIP12-ECD-GST
huZIP12-ECD-GST (human) [5] = biological target: huZIP12-ECD-GST (human) (UniProt Q504Y0); experiment: summary of the three screening assays of the affinity-matured clones (one is the HTRF inhibition assay; the excerpt does not name the other two)
[6] = biological target: cynomolgus monkey ZIP12-ECD-GST (cynomolgus monkey) (UniProt Q95KA5); experiment: SPR single cycle kinetics, mAb captured on protein A
huZIP12-ECD-GST (human) [7] = biological target: huZIP12-ECD-GST (human) (UniProt Q504Y0); experiment: as above

B1: 51B12 parent (antibody, V domains shown)
VH: QVQLVESGGGVVQPGRSLRLSCAASGFTFSDYGMHWVRQAPGKGLEWVAYISSGGTTIYYADTVKGRFTISRDNSKNTLYLQMNSLRAEDTAVYYCARWTNLYAMDYWGQGTTVTVSS
VL: DIVLTQSPDSLAVSLGERATINCRASKSVSTSGYSYMHWYQQKPGQPPKFLIYLASNLESGVPDRFSGSGSGTDFTLTISSLQAEDVAVYYCQHSREVPYTFGGGTKVEIKR
- binding (huZIP12-ECD-GST (human) [1]): binds
- binding [2]: binds
- binding [3]: binds

B3: H3_W99H_VL-par (antibody, V domains shown)
VH: QVQLVESGGGVVQPGRSLRLSCAASGFTFSDYGMHWVRQAPGKGLEWVAYISSGGTTIYYADTVKGRFTISRDNSKNTLYLQMNSLRAEDTAVYYCARHTNLYAMDYWGQGTTVTVSS
VL: DIVLTQSPDSLAVSLGERATINCRASKSVSTSGYSYMHWYQQKPGQPPKFLIYLASNLESGVPDRFSGSGSGTDFTLTISSLQAEDVAVYYCQHSREVPYTFGGGTKVEIKR
- binding (huZIP12-ECD-GST (human) [4]): binds
- binding (huZIP12-ECD-GST (human) [5]): binds

B4: H2_K65P_VL-par (antibody, V domains shown)
VH: QVQLVESGGGVVQPGRSLRLSCAASGFTFSDYGMHWVRQAPGKGLEWVAYISSGGTTIYYADTVPGRFTISRDNSKNTLYLQMNSLRAEDTAVYYCARWTNLYAMDYWGQGTTVTVSS
VL: DIVLTQSPDSLAVSLGERATINCRASKSVSTSGYSYMHWYQQKPGQPPKFLIYLASNLESGVPDRFSGSGSGTDFTLTISSLQAEDVAVYYCQHSREVPYTFGGGTKVEIKR
- binding (huZIP12-ECD-GST (human) [4]): binds

Other lines, results leading:

- binding (huZIP12-ECD-GST (human) [4]): binds
B2: H3_W99H_L2 (antibody, V domains shown)
VH: QVQLVESGGGVVQPGRSLRLSCAASGFTFSDYGMHWVRQAPGKGLEWVAYISSGGTTIYYADTVKGRFTISRDNSKNTLYLQMNSLRAEDTAVYYCARHTNLYAMDYWGQGTTVTVSS
VL: DIVLTQSPDSLAVSLGERATINCRASKSVSTSGYSYMHWYQQKPGQPPKFLIYLASNKESGVPDRFSGSGSGTDFTLTISSLQAEDVAVYYCQHSREVPYTFGGGTKVEIKR

- binding (huZIP12-ECD-GST (human) [4]): binds
- binding [6]: binds
- binding (huZIP12-ECD-GST (human) [7]): binds
B5: H3_W99H_L1 (antibody, V domains shown)
VH: QVQLVESGGGVVQPGRSLRLSCAASGFTFSDYGMHWVRQAPGKGLEWVAYISSGGTTIYYADTVKGRFTISRDNSKNTLYLQMNSLRAEDTAVYYCARHTNLYAMDYWGQGTTVTVSS
VL: DIVLTQSPDSLAVSLGERATINCRASKSVSTQGYSYMHWYQQKPGQPPKFLIYLASNLESGVPDRFSGSGSGTDFTLTISSLQAEDVAVYYCQHSREVPYTFGGGTKVEIKR
